Laboratory results: PubChem BioAssay AID328 (DTP/NCI, 2004)
The list does not hold the whole screen: it is rich in T/C values a quarter to a half above the control, in often repeated tests (any T/C) and in doses without a T/C. Other doses and runs of a compound stand elsewhere. T/C: endpoint of the treated group in % of that of the vehicle group. Some entries give survivors of the animals treated and no T/C: the source holds a T/C of zero for them, seemingly a mark for toxic or unscored doses. Some doses without a T/C left all or most animals alive at the check, yet need not have been tolerated: the source hardly ever lists a survival T/C far under the control, and the zero likely stands for such cases as well. Survivors were counted at the toxicity check, usually on the fifth day, unless a day is given; later deaths do not show. Schedules are NCI's codes, read here as Q, the interval in days (D) or hours (H), X, the number of doses. For survival time, the PubChem record calls one and a half times the control and up active, and a quarter to a half above the control has no call in these data; cut-offs in other NCI protocols can differ. Some entries were tested several times; the values are given in rising order. Residues, ends and D or L forms follow the SMILES beside them. *: point of attachment. Bn = c1ccc(C*)cc1

Test system: BDF1 mice, P388 leukemia ip, median survival T/C
Assay: NCI In Vivo Anticancer Drug Screen. Data for tumor model P388 Leukemia (intraperitoneal) in B6D2F1 (BDF1) mice
Details: T/C endpoint: median survival time, higher T/C = longer survival
Summary of the method: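 Survival ratio, drug arm over vehicle arm, in mice with a transplanted tumour.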

[1] = dose: 100.0 mg/kg/injection, schedule: Q04DX003 (ip), vehicle: saline with Tween-80
[2] = dose: 50.0 mg/kg/injection, schedule: Q01DX009 (ip), vehicle: saline with Tween-80
[3] = dose: 200.0 mg/kg/injection, schedule: Q01DX009 (ip), vehicle: saline with Tween-80
[4] = dose: 100.0 mg/kg/injection, schedule: Q01DX009 (ip), vehicle: saline with Tween-80
[5] = dose: 200.0 mg/kg/injection, schedule: Q04DX003 (ip), vehicle: saline with Tween-80
[6] = dose: 100.0 mg/kg/injection, schedule: Q01DX009 (ip), vehicle: Klucel (hydroxypropylcellulose) (HPC)
[7] = dose: 400.0 mg/kg/injection, schedule: Q04DX003 (ip), vehicle: saline with Tween-80
[8] = dose: 12.5 mg/kg/injection, schedule: Q04DX003 (ip), vehicle: saline with Tween-80

In the case of Cc1nc2ccccc2nc1CI, the T/C (dose: 4.5 mg/kg/injection, schedule: Q01DX009 (ip), vehicle: alcohol) was 133 % of control, the T/C (dose: 6.75 mg/kg/injection, schedule: Q01DX009 (ip), vehicle: saline) was 130 % of control and the T/C (dose: 9.0 mg/kg/injection, schedule: Q01DX009 (ip), vehicle: alcohol) was 127 % of control. For the same compound, the T/C (dose: 18.0 mg/kg/injection, schedule: Q01DX009 (ip), vehicle: alcohol) was 127 % of control, the T/C (dose: 26.0 mg/kg/injection, schedule: Q01DX009 (ip), vehicle: saline) was 125 and 140 % of control and the survivor count (dose: 40.0 mg/kg/injection, schedule: Q01DX009 (ip), vehicle: saline) was 5 of 6. For the same compound, the survivor count (dose: 60.0 mg/kg/injection, schedule: Q01DX001 (ip), vehicle: Klucel (hydroxypropylcellulose) (HPC)) was 1 of 6, the survivor count (dose: 60.0 mg/kg/injection, schedule: Q01DX009 (ip), vehicle: saline) was 5 of 6 and the survivor count (dose: 60.0 mg/kg/injection, schedule: Q04DX003 (ip), vehicle: saline) was 3 of 6. The survivor count (dose: 90.0 mg/kg/injection, schedule: Q04DX003 (ip), vehicle: saline) was 2 of 6, the survivor count (dose: 120.0 mg/kg/injection, schedule: Q01DX001 (ip), vehicle: Klucel (hydroxypropylcellulose) (HPC)) was 0 of 6 and the survivor count (dose: 135.0 mg/kg/injection, schedule: Q04DX003 (ip), vehicle: saline) was 0 of 6.
With O=[N+]([O-])c1ccc(S(=O)(=O)c2ccc([N+](=O)[O-])cc2)cc1 the survivor count [1] was 6 of 6.
In the case of C/C1=C/C2=CC(C)C[C@@H]2C(=O)[C@]2(C)C(=O)CC(C)(C)[C@H]2CC1=O (stereo partly drawn), the T/C (dose: 0.5 mg/kg/injection, schedule: Q01DX009 (ip), vehicle: alcohol) was 141 % of control and the T/C (dose: 1.0 mg/kg/injection, schedule: Q01DX009 (ip), vehicle: alcohol) was 128 and 130 % of control.
CCOP(=O)(NCCCOC)OCC was tested, and the survivor count (dose: 19.0 mg/kg/injection, schedule: Q01DX009 (ip), vehicle: saline) was 6 of 6 and the survivor count (dose: 21.0 mg/kg/injection, schedule: Q04DX003 (ip), vehicle: saline) was 2 of 6.
With COS(C)(=O)=O the survivor count (dose: 100.0 mg/kg/injection, schedule: Q01DX010 (ip), vehicle: saline) was 6 of 6.
C=CC(C)(C)C12CC3C(=O)N/C(=C\c4cnc[nH]4)C(=O)N3C1Nc1ccccc12 (stereo not drawn) was tested, and the T/C (dose: 25.0 mg/kg/injection, schedule: Q01DX009 (ip), vehicle: Klucel (hydroxypropylcellulose) (HPC)) was 140 % of control.
In the case of CCCCOCN(CCCc1ccccc1)COCCCC, the T/C [2] was 136 % of control and the T/C [3] was 127 % of control.
In the case of S=C(N=Nc1ccccc1)NNc1ccccc1, the survivor count [4] was 6 of 6, the survivor count [3] was 5 of 6 and the survivor count (dose: 400.0 mg/kg/injection, schedule: Q01DX009 (ip), vehicle: saline with Tween-80) was 2 of 6.
O=C(c1ccccc1)C1C(c2ccccc2)C2(CCCCC2=O)C(c2ccccc2)CC1(O)c1ccccc1 (stereo not drawn) was tested, and the survivor count (dose: 50.0 mg/kg/injection, schedule: Q01DX001 (ip), vehicle: Klucel (hydroxypropylcellulose) (HPC)) was 6 of 6 and the survivor count (dose: 100.0 mg/kg/injection, schedule: Q01DX001 (ip), vehicle: Klucel (hydroxypropylcellulose) (HPC)) was 6 of 6.
For COC(=O)C(CC(C)C)NC(=O)C(N)Cc1ccc(OCc2ccccc2)cc1 (stereo not drawn) (H-Tyr(Bn)-Leu-OMe; configuration not given here), the survivor count [4] was 1 of 6, the survivor count [3] was 0 of 6 and the survivor count [5] was 2 of 6.
With O=C1NC(=O)C2(CCCCC2)N1 the survivor count [6] was 1 of 6, the survivor count (dose: 100.0 mg/kg/injection, schedule: Q04DX003 (ip), vehicle: Klucel (hydroxypropylcellulose) (HPC)) was 4 of 6 and the survivor count (dose: 200.0 mg/kg/injection, schedule: Q04DX003 (ip), vehicle: Klucel (hydroxypropylcellulose) (HPC)) was 1 of 6. For the same compound, the survivor count (dose: 400.0 mg/kg/injection, schedule: Q04DX003 (ip), vehicle: Klucel (hydroxypropylcellulose) (HPC)) was 2 of 6.
For CO/N=C1\CC(C)N2C(=O)C(C(C)C)NC(=O)C(NC(=O)c3c4nc5c(C(=O)NC6C(=O)NC(C(C)C)C(=O)N7C(C)CC(O)C7C(=O)N(C)CC(=O)N(C)C(C(C)C)C(=O)OC6C)ccc(C)c5oc-4c(C)c(=O)c3N)C(CO)OC(=O)C(C)N(C)C(=O)CN(C)C(=O)C12 (stereo not drawn), the T/C (dose: 0.4 mg/kg/injection, schedule: Q01DX009 (ip), vehicle: saline + alcohol) was 130 % of control, the T/C (dose: 0.8 mg/kg/injection, schedule: Q01DX009 (ip), vehicle: saline + alcohol) was 140 % of control and the T/C (dose: 6.4 mg/kg/injection, schedule: Q01DX001 (ip), vehicle: saline + alcohol) was 134 % of control.
For CCCCCCCCCCCCOP(N)(=O)OCCCCCCCCCCCC, the survivor count [6] was 5 of 6, the survivor count (dose: 200.0 mg/kg/injection, schedule: Q01DX009 (ip), vehicle: Klucel (hydroxypropylcellulose) (HPC)) was 4 of 6 and the survivor count [3] was 5 of 6. For the same compound, the survivor count (dose: 400.0 mg/kg/injection, schedule: Q01DX009 (ip), vehicle: Klucel (hydroxypropylcellulose) (HPC)) was 0 of 6 and the survivor count [7] was 2 of 6.
For O=c1c(N=Nc2ccccc2)c[nH]n1-c1ccccc1, the survivor count (dose: 125.0 mg/kg/injection, schedule: Q01DX009 (ip), vehicle: saline with Tween-80) was 6 of 7.
With O=C(N=Nc1c(O)[nH]c2c(Cl)cc(Cl)cc12)C(=O)Nc1cccc(C(F)(F)F)c1 the survivor count [2] was 6 of 6.
With CCOc1cc(/C=N\Nc2nnc(C)n2N)c(C)cc1N(CCCl)CCCl the T/C (dose: 10.0 mg/kg/injection, schedule: Q04DX003 (ip), vehicle: saline) was 145 % of control, the T/C (dose: 20.0 mg/kg/injection, schedule: Q04DX003 (ip), vehicle: saline) was 145 % of control and the survivor count (dose: 200.0 mg/kg/injection, schedule: Q04DX003 (ip), vehicle: saline sonified) was 5 of 6.
With COC(=O)C(N)CN (stereo not drawn) the survivor count (dose: 87.5 mg/kg/injection, schedule: Q01DX009 (ip), vehicle: saline with Tween-80) was 7 of 7 and the survivor count (dose: 350.0 mg/kg/injection, schedule: Q01DX009 (ip), vehicle: saline with Tween-80) was 5 of 7.
With C=CC[N+](CC=C)(CC=C)CCC[N+](CC=C)(CC=C)CC=C the survivor count (dose: 100.0 mg/kg/injection, schedule: Q04DX003 (ip), vehicle: water) was 1 of 6.
For c1ccc(CCN2COc3c(ccc4cccnc34)C2)cc1, the survivor count [5] was 5 of 6 and the survivor count [7] was 0 of 6.
For CCCCCCCCCCCCCCCC[N+](C)(C)c1ccccc1, the T/C (dose: 6.25 mg/kg/injection, schedule: Q04DX003 (ip), vehicle: saline with Tween-80) was 128 % of control, the T/C [8] was 135 % of control and the survivor count [8] was 5 of 6. For the same compound, the survivor count (dose: 50.0 mg/kg/injection, schedule: Q04DX003 (ip), vehicle: saline with Tween-80) was 5 of 6, the survivor count [1] was 0 of 6 and the survivor count [5] was 0 of 6. For the same compound, the survivor count [7] was 0 of 6.
